The text below walks through data of US10106757B2, “Ionic liquid, lubricant, and magnetic recording medium” (DEXERIALS CORPORATION, priority 2016, dated 2018).

Data set [1] is described as follows: Disk durability test (CSS durability). To be noted: 25° C., 60% RH; for CSS durability after heating: after heating test 3 minutes at 200° C.; for CSS durability: number of CSS until coefficient of friction greater than 1.0.
Data set [2] can be described thus: Tape durability test: coefficient of friction after shuttle run of 100 times. Particulars: for Coefficient of friction after 100 runs after heating test: after heating 10 minutes at 100° C.
Data set [3] is described as follows: Tape durability test: still durability. Particulars: for Still durability after heating test: after heating 10 minutes at 100° C.

Take “pentadecafluorooctanoic acid octadecyl ammonium salt [Comp. Ex. 4A, reference compound]”: in data set [1], the “CSS durability after heating” value is 891 times. For the same compound, in data set [1] (ammonium salt), the CSS durability is on record as >50,000 times. Further, in data set [2] (40° C., 90% RH), the “Coefficient of friction after 100 runs” value is listed as 0.25 and the “Coefficient of friction after 100 runs after heating test” value (“Coefficient … after heating test” below) was 0.5. Moreover, in data set [2] (−5° C.), the “Coefficient of friction after 100 runs” value is 0.21 and the “Coefficient … after heating test” value worked out at 0.5. Further, in data set [3] (40° C., 30% RH), the Still durability is given as more than 60 min and the “Still durability after heating test” value turned out to be 16 min. Besides, in data set [3] (−5° C.), the Still durability is more than 60 min and the “Still durability after heating test” value was found to be 12 min.
On to “nonafluorobutanesulfonic acid-1,3-dioctadecyl-2-heptadecylimidazolium [Ex. 3A]”, for which, in data set [1], the “CSS durability after heating” value is reported as >50,000 times and the CSS durability is >50,000 times. Moreover, in data set [2] (40° C., 90% RH), the “Coefficient of friction after 100 runs” value is 0.18 and the “Coefficient … after heating test” value was 0.18. Moreover, in data set [2] (−5° C.), the “Coefficient of friction after 100 runs” value is 0.17 and the “Coefficient … after heating test” value amounted to 0.18. For the same compound, in data set [3] (40° C., 30% RH), the Still durability is more than 60 min and the “Still durability after heating test” value is given as more than 60 min. Besides, in data set [3] (−5° C.), the Still durability is more than 60 min and the “Still durability after heating test” value is recorded as more than 60 min.
In the case of “nonafluorobutanesulfonic acid-1,3-didodecyl-2-undecylimidazolium [Ex. 1A]”, in data set [1], the “CSS durability after heating” value is >50,000 times and the CSS durability is on record as >50,000 times. Besides, in data set [2] (40° C., 90% RH), the “Coefficient of friction after 100 runs” value is 0.21 and the “Coefficient … after heating test” value amounted to 0.22. Also, in data set [2] (−5° C.), the “Coefficient of friction after 100 runs” value was determined as 0.20 and the “Coefficient … after heating test” value stood at 0.21. In data set [3] (40° C., 30% RH), the Still durability is recorded as more than 60 min and the “Still durability after heating test” value was more than 60 min. Moreover, in data set [3] (−5° C.), the Still durability was more than 60 min and the “Still durability after heating test” value is more than 60 min.
On to `CCCCCCCCCCCCCCCCCC[n+]1ccn(CCCC)c1.O=S1(=O)[N-]S(=O)(=O)C(F)(F)C(F)(F)C1(F)F` [Comp. Ex. 2A, hexafluorocyclopropane-1,3-bis(sulfonyl)imide-1-butyl-3-n-octadecylimidazolium, reference compound], for which, in data set [1], the “CSS durability after heating” value was >50,000 times and the CSS durability is listed as >50,000 times. The “Coefficient … after heating test” value in data set [2] (40° C., 90% RH) was 0.3. In addition, the “Coefficient … after heating test” value in data set [2] (−5° C.) is 0.3. Moreover, in data set [3] (40° C., 30% RH), the Still durability is listed as more than 60 min and the “Still durability after heating test” value was more than 60 min. In addition, in data set [3] (−5° C.), the Still durability was more than 60 min and the “Still durability after heating test” value was more than 60 min.
Regarding `CCCCCCCCCCCCn1cc[n+](CCCCCCCCCCCC)c1CCCCCCCCCCC.O=S(=O)([N-]S(=O)(=O)C(F)(F)C(F)(F)C(F)(F)C(F)(F)F)C(F)(F)C(F)(F)C(F)(F)C(F)(F)F` [Ex. 2A, bis(nonafluorobutanesulfonyl)imide-1,3-didodecyl-2-undecylimidazolium], in data set [1], the “CSS durability after heating” value is >50,000 times and the CSS durability was >50,000 times. For the same compound, in data set [2] (40° C., 90% RH), the “Coefficient of friction after 100 runs” value was 0.22 and the “Coefficient … after heating test” value came out at 0.23. In addition, in data set [2] (−5° C.), the “Coefficient of friction after 100 runs” value amounted to 0.21 and the “Coefficient … after heating test” value is reported as 0.22. For the same compound, in data set [3] (40° C., 30% RH), the Still durability is given as more than 60 min and the “Still durability after heating test” value is recorded as more than 60 min. In addition, in data set [3] (−5° C.), the Still durability is given as more than 60 min and the “Still durability after heating test” value is reported as more than 60 min.
In the case of “nonafluorobutanesulfonic acid-1-octadecylimidazolium [Comp. Ex. 1A, reference compound]”, in data set [1], the “CSS durability after heating” value was >50,000 times and the CSS durability is on record as >50,000 times. For the same compound, the “Coefficient … after heating test” value in data set [2] (40° C., 90% RH) was found to be 0.2. Besides, the “Coefficient … after heating test” value in data set [2] (−5° C.) is 0.2. In addition, in data set [3] (40° C., 30% RH), the Still durability was more than 60 min and the “Still durability after heating test” value is listed as more than 60 min. For the same compound, in data set [3] (−5° C.), the Still durability is on record as more than 60 min and the “Still durability after heating test” value was more than 60 min.
With “nonafluorobutanesulfonic acid-2-heptadecylimidazole salt [Comp. Ex. 3A, reference compound]”, in data set [1], the “CSS durability after heating” value was >50,000 times and the CSS durability is listed as >50,000 times. Also, in data set [2] (40° C., 90% RH), the “Coefficient of friction after 100 runs” value turned out to be 0.20 and the “Coefficient … after heating test” value is listed as 0.2. In addition, in data set [2] (−5° C.), the “Coefficient of friction after 100 runs” value turned out to be 0.18 and the “Coefficient … after heating test” value worked out at 0.2. Further, in data set [3] (40° C., 30% RH), the Still durability is more than 60 min and the “Still durability after heating test” value is more than 60 min. In data set [3] (−5° C.), the Still durability is recorded as more than 60 min and the “Still durability after heating test” value is more than 60 min.
With `CCCCCCCCCCCCCCCCCCn1cc[n+](CCCCCCCCCCCCCCCCCC)c1CCCCCCCCCCCCCCCCC.O=S(=O)([N-]S(=O)(=O)C(F)(F)C(F)(F)C(F)(F)C(F)(F)F)C(F)(F)C(F)(F)C(F)(F)C(F)(F)F` [Ex. 4A, bis(nonafluorobutanesulfonyl)imide-1,3-dioctadecyl-2-heptadecylimidazolium], in data set [1], the “CSS durability after heating” value is recorded as >50,000 times and the CSS durability is reported as >50,000 times. Moreover, in data set [2] (40° C., 90% RH), the “Coefficient of friction after 100 runs” value amounted to 0.19 and the “Coefficient … after heating test” value is 0.19. In data set [2] (−5° C.), the “Coefficient of friction after 100 runs” value turned out to be 0.18 and the “Coefficient … after heating test” value is recorded as 0.19. In data set [3] (40° C., 30% RH), the Still durability is more than 60 min and the “Still durability after heating test” value is given as more than 60 min. Moreover, in data set [3] (−5° C.), the Still durability was more than 60 min and the “Still durability after heating test” value was more than 60 min.
On to “pentadecafluorooctanoic acid octadecyl ammonium salt [pentadecafluorooctanoic acid octadecyl ammonium salt]”, for which the “CSS durability after heating” value in data set [1] is 891 times. For the same compound, the CSS durability result in data set [1] (ammonium salt) is “greater than 50,000 times”.
